Binding data for one molecule are collected here from patent US20170254813A1 (VENTANA MEDICAL SYSTEMS, published 2017).

The test has as its target T1, p120-catenin (UniProt O60716).
T1 sequence (looked up): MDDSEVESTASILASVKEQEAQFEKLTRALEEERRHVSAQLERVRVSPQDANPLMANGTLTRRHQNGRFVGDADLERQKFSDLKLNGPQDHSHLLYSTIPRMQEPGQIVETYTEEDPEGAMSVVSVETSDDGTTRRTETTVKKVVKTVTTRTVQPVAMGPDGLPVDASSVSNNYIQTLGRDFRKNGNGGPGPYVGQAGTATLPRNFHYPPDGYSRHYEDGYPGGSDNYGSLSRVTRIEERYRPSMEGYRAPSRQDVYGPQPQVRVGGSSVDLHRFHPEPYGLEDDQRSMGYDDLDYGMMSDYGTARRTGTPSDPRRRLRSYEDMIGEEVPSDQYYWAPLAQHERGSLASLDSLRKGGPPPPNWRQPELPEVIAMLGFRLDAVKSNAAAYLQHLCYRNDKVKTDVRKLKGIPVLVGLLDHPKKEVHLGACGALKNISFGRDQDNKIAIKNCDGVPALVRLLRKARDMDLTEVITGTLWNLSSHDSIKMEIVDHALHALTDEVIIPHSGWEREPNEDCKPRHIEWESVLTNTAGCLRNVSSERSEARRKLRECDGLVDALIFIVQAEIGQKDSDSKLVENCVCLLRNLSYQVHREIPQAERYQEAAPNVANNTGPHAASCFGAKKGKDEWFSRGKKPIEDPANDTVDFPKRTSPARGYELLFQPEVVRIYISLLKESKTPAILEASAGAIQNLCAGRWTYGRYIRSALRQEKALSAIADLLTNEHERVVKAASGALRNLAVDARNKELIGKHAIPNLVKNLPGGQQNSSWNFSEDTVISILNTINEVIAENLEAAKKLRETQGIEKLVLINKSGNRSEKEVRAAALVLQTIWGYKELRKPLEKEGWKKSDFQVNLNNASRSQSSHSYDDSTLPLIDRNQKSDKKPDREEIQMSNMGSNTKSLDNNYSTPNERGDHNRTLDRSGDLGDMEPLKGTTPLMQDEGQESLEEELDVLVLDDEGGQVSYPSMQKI
As to the kind of experiment: in situ proximity assay (chemical ligation and hapten transfer) on FFPE tonsil sections.

These are yes or no findings as the source states them, for the method shown. Some binding calls cover weakened binding; strength is not graded here.

B1: E-cadherin (other, UniProt P12830 155-882, looked up)
chain: DWVIPPISCPENEKGPFPKNLVQIKSNKDKEGKVFYSITGQGADTPPVGVFIIERETGWLKVTEPLDRERIATYTLFSHAVSSNGNAVEDPMEILITVTDQNDNKPEFTQEVFKGSVMEGALPGTSVMEVTATDADDDVNTYNAAIAYTILSQDPELPDKNMFTINRNTGVISVVTTGLDRESFPTYTLVVQAADLQGEGLSTTATAVITVTDTNDNPPIFNPTTYKGQVPENEANVVITTLKVTDADAPNTPAWEAVYTILNDDGGQFVVTTNPVNNDGILKTAKGLDFEAKQQYILHVAVTNVVPFEVSLTTSTATVTVDVLDVNEAPIFVPPEKRVEVSEDFGVGQEITSYTAQEPDTFMEQKITYRIWRDTANWLEINPDTGAISTRAELDREDFEHVKNSTYTALIIATDNGSPVATGTGTLLLILSDVNDNAPIPEPRTIFFCERNPKPQVINIIDADLPPNTSPFTAELTHGASANWTIQYNDPTQESIILKPKMALEVGDYKINLKLMDNQNKDQVTTLEVSVCDCEGAAGVCRKAQPVEAGLQIPAILGILGGILALLILILLLLLFLRRRAVVKEPLLPPEDDTRDNVYYYDEEGGGEEDQDFDLSQLHRGLDARPEVTRNDVAPTLMSVPRYLPRPANPDEIGNFIDENLKAADTDPTAPPYDSLLVFDYEGSGSEAASLSSLNSSESDKDQDYDYLNEWGNRFKKLADMYGGGEDD
notes: Endogenous protein in tissue section; also called E-cadherein
Regarding B1, the binding result is “binds”.
